The target of test [1] is FLAG-Cdh1 (UniProt Q9UM11). Nature of the test: affinity purification with mass spectrometry.
The target in test [2] is FLAG-Cdh1 (UniProt Q9UM11). Nature of the test: affinity purification with mass spectrometry. This is another data set of the same source.

Amino acid sequences for entries named in this document (tags omitted).
UniProt Q9UM11: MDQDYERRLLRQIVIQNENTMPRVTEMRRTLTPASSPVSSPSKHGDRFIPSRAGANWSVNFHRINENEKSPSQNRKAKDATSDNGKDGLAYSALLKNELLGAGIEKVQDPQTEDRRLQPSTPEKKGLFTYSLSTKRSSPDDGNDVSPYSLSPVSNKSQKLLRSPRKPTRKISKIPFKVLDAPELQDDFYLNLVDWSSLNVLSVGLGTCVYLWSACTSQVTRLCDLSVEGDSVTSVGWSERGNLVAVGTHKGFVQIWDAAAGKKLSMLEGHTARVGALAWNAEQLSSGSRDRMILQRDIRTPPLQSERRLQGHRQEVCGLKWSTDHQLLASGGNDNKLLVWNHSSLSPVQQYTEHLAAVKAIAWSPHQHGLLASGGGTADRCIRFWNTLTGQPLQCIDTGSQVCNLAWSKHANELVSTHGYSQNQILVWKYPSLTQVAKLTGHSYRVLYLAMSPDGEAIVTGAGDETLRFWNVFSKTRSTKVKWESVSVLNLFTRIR
UniProt Q9HAW4: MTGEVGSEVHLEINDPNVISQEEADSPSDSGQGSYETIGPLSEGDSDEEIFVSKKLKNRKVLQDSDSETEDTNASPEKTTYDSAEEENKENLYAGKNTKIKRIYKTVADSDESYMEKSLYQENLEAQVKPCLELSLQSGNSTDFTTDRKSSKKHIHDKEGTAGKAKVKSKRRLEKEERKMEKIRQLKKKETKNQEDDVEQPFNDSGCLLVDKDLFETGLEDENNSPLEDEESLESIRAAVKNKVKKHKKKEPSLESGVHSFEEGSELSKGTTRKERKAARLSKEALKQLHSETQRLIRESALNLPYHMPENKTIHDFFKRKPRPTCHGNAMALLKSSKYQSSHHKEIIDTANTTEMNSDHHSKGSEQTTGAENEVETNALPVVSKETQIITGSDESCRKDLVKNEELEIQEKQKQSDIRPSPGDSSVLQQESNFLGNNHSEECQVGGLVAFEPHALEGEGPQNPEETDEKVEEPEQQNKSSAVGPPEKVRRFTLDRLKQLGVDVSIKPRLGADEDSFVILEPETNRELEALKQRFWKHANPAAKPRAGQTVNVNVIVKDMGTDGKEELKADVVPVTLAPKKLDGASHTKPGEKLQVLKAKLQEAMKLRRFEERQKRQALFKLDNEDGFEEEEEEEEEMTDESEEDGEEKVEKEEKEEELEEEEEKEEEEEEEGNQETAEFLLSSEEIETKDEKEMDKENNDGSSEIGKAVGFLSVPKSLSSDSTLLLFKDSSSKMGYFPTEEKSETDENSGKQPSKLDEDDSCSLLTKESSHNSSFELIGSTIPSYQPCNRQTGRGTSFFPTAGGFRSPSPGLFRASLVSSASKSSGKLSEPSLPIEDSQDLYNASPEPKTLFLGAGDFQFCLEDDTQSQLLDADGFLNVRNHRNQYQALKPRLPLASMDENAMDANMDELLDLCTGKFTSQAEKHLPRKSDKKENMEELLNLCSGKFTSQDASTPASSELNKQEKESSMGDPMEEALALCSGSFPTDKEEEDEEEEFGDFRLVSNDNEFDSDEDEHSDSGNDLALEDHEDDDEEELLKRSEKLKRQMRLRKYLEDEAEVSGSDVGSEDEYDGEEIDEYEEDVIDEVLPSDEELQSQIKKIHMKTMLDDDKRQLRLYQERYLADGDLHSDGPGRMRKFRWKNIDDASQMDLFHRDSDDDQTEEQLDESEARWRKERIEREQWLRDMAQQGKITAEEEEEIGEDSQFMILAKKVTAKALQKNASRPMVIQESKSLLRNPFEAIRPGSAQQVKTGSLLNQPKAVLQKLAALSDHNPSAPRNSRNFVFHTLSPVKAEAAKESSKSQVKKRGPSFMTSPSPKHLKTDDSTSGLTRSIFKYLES
UniProt P52732: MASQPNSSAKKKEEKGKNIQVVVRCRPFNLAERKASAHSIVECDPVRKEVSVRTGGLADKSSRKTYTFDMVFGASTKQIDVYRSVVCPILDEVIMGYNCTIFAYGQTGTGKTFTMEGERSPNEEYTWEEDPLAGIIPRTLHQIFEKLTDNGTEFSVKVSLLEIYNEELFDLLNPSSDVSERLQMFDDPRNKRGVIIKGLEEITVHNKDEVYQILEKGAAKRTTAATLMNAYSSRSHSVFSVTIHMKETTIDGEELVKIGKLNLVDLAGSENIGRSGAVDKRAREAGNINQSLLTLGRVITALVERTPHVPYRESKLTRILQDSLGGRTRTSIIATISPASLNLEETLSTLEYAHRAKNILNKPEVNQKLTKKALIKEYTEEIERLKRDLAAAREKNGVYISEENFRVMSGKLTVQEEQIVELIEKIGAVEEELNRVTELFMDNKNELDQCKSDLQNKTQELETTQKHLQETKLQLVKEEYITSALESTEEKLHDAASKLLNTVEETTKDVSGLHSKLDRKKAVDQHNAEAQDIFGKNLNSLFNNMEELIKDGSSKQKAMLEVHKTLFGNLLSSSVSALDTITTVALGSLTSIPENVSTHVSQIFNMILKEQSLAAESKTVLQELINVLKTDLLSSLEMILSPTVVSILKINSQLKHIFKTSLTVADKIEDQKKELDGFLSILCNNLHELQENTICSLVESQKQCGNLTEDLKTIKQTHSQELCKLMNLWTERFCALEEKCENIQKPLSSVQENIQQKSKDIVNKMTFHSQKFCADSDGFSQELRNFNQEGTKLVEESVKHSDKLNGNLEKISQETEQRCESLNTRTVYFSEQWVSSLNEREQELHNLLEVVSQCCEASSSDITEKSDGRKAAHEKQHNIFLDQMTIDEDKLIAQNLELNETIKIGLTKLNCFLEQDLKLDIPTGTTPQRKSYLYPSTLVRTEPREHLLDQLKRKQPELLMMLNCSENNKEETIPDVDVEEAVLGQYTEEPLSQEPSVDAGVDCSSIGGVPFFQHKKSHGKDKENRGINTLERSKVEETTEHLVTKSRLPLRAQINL
UniProt P31350: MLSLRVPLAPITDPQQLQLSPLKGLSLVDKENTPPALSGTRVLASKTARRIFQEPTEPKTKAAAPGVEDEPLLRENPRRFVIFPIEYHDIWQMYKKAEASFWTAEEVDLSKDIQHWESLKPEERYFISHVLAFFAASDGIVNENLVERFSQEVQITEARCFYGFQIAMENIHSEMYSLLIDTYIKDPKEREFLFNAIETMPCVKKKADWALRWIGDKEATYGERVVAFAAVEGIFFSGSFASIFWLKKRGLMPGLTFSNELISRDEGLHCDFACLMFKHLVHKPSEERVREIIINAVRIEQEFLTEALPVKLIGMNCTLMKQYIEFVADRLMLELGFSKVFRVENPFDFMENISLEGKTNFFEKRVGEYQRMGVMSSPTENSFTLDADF

Read-outs that look alike come from different tables or passages of the source. These are yes or no findings as the source states them, for the method shown. In cells and extracts the contact can be indirect. Here binding means that the protein was enriched with, or labelled near, the bait; the list need not be complete.

With Claspin (from UniProt Q9HAW4 1-1339), in the test with FLAG-Cdh1 [1], the binding entry is reported as “binds”.

With Kif11 (from UniProt P52732 1-1056), the binding entry with FLAG-Cdh1 [1] is given as “binds”.

For the molecule Rrm2 (from UniProt P31350 1-389), the binding entry with FLAG-Cdh1 [1] is “binds”.

B1: Kif22/KID (protein, UniProt Q14807 1-665)
chain: MAAGGSTQQRRREMAAASAAAISGAGRCRLSKIGATRRPPPARVRVAVRLRPFVDGTAGASDPPCVRGMDSCSLEIANWRNHQETLKYQFDAFYGERSTQQDIYAGSVQPILRHLLEGQNASVLAYGPTGAGKTHTMLGSPEQPGVIPRALMDLLQLTREEGAEGRPWALSVTMSYLEIYQEKVLDLLDPASGDLVIREDCRGNILIPGLSQKPISSFADFERHFLPASRNRTVGATRLNQRSSRSHAVLLVKVDQRERLAPFRQREGKLYLIDLAGSEDNRRTGNKGLRLKESGAINTSLFVLGKVVDALNQGLPRVPYRDSKLTRLLQDSLGGSAHSILIANIAPERRFYLDTVSALNFAARSKEVINRPFTNESLQPHALGPVKLSQKELLGPPEAKRARGPEEEEIGSPEPMAAPASASQKLSPLQKLSSMDPAMLERLLSLDRLLASQGSQGAPLLSTPKRERMVLMKTVEEKDLEIERLKTKQKELEAKMLAQKAEEKENHCPTMLRPLSHRTVTGAKPLKKAVVMPLQLIQEQAASPNAEIHILKNKGRKRKLESLDALEPEEKAEDCWELQISPELLAHGRQKILDLLNEGSARDLRSLQRIGPKKAQLIVGWRELHGPFSQVEDLERVEGITGKQMESFLKANILGLAAGQRCGAS
Consider B1, for which the binding entry with FLAG-Cdh1 [2] was “binds weakly”.

The values above are taken from article doi:10.1101/2020.04.09.033621.
